Data taken from publication PMC7933818.

Target: NF90 (Jurkat) (human (endogenous in Jurkat))
Experiment: co-IP; Jurkat cells treated with PMA/ionomycin (P/I); RIPA lysate with nuclease, sonicated; antibody and protein A/G agarose overnight at 4°C; washed three times with TBST; Western blot

- binding: binds
B1: NFATc1 (protein, UniProt O95644 1-943)
chain: MPSTSFPVPSKFPLGPAAAVFGRGETLGPAPRAGGTMKSAEEEHYGYASSNVSPALPLPTAHSTLPAPCHNLQTSTPGIIPPADHPSGYGAALDGGPAGYFLSSGHTRPDGAPALESPRIEITSCLGLYHNNNQFFHDVEVEDVLPSSKRSPSTATLSLPSLEAYRDPSCLSPASSLSSRSCNSEASSYESNYSYPYASPQTSPWQSPCVSPKTTDPEEGFPRGLGACTLLGSPRHSPSTSPRASVTEESWLGARSSRPASPCNKRKYSLNGRQPPYSPHHSPTPSPHGSPRVSVTDDSWLGNTTQYTSSAIVAAINALTTDSSLDLGDGVPVKSRKTTLEQPPSVALKVEPVGEDLGSPPPPADFAPEDYSSFQHIRKGGFCDQYLAVPQHPYQWAKPKPLSPTSYMSPTLPALDWQLPSHSGPYELRIEVQPKSHHRAHYETEGSRGAVKASAGGHPIVQLHGYLENEPLMLQLFIGTADDRLLRPHAFYQVHRITGKTVSTTSHEAILSNTKVLEIPLLPENSMRAVIDCAGILKLRNSDIELRKGETDIGRKNTRVRLVFRVHVPQPSGRTLSLQVASNPIECSQRSAQELPLVEKQSTDSYPVVGGKKMVLSGHNFLQDSKVIFVEKAPDGHHVWEMEAKTDRDLCKPNSLVVEIPPFRNQRITSPVHVSFYVCNGKRKRSQYQRFTYLPANVPIIKTEPTDDYEPAPTCGPVSQGLSPLPRPYYSQQLAMPPDPSSCLVAGFPPCPQRSTLMPAAPGVSPKLHDLSPAAYTKGVASPGHCHLGLPQPAGEAPAVQDVPRPVATHPGSPGQPPPALLPQQVSAPPSSSCPPGLEHSLCPSSPSPPLPPATQEPTCLQPCSPACPPATGRPQHLPSTVRRDESPTAGPRLLPEVHEDGSPNLAPIPVTVKREPEELDQLYLDDVNEIIRNDLSSTSTHS

No constants are given. Whether binding was seen depends on the method and setting. In cells and extracts the contact can be indirect. Binding calls can cover weak binding; strength is not graded here.
